Experimental data taken from paper PMC5996148.
Several values for one entry are separate records, joined by “and”; a condition that tells them apart may be missing. Equal values may be shown once. The list shows a part of the results. For some of these results: The exact form of the protein is not confirmed.

Tests used:
Experiment in all cases: protein microarray (ProtoArray v5.0), streptavidin-Alexa Fluor 647
Details in all cases: 3'-biotin; 20 mM Tris (pH 7.5), 5 mM MgCl2, 100 mM KCl, 0.1% Tween-20, A/T-rich and random oligonucleotide blockers; temperature not stated; high values mean tight binding
DIXDC1 = biological target: T1, DIXDC1 (UniProt Q155Q3)
T1 sequence: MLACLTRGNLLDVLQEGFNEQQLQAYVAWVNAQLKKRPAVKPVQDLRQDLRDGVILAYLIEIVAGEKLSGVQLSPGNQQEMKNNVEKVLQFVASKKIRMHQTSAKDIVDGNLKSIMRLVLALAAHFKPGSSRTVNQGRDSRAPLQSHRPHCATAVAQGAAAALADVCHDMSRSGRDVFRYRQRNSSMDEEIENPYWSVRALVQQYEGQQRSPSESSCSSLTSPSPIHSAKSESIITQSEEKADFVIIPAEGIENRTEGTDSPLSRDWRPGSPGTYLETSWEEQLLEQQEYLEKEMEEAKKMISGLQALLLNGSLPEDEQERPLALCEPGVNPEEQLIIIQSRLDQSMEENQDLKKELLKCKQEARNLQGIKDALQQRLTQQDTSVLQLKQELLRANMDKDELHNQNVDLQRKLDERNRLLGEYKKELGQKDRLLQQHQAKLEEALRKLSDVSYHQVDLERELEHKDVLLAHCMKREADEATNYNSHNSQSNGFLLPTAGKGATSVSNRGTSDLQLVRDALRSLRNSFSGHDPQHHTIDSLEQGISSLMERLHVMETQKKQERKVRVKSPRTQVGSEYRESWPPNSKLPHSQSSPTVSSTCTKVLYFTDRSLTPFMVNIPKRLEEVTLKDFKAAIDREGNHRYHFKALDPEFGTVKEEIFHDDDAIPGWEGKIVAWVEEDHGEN

DKFZP564O0823 (human) = system: DKFZP564O0823 (human)
DKFZp434B1231 (human) = system: DKFZp434B1231 (human)
DLEU1 (human) = system: DLEU1 (human)
DLK2 (human) = system: DLK2 (human)
DLX1 (human) = system: DLX1 (human)
DMD (human) = system: DMD (human)
DMKN (human) = system: DMKN (human)
DMPK (human) = system: DMPK (human)
DMRTC1 (human) = system: DMRTC1 (human)

Sequence “GGGAGGCTGAGGCAGG [G4-1 biotinylated (PQS2)]” has a binding signal (DIXDC1) of -0.328 z-score, a binding signal (DKFZP564O0823 (human)) of -0.347 z-score and a binding signal (DKFZp434B1231 (human)) of -0.31 z-score. For the same sequence, the binding signal (DLEU1 (human)) was -0.272 z-score, the binding signal (DLK2 (human)) was -0.316 z-score and the binding signal (DLX1 (human)) was -0.327 z-score. The binding signal (DMD (human)) was -0.354 z-score and -0.36 z-score, the binding signal (DMKN (human)) was -0.279 z-score and the binding signal (DMPK (human)) was -0.342 z-score. For the same sequence, the binding signal (DMRTC1 (human)) was -0.327 z-score.
